Measured values published in PMC8844116.
These are yes or no findings as the source states them, for the method shown. In cells and extracts the contact can be indirect. Some results given as binding are weak or reduced against the parent protein; the word gives no strength.

By UniProt entry, the sequences of proteins in these tests, tags left out. Residues count along the entry.
UniProt Q62151, residues 23-402: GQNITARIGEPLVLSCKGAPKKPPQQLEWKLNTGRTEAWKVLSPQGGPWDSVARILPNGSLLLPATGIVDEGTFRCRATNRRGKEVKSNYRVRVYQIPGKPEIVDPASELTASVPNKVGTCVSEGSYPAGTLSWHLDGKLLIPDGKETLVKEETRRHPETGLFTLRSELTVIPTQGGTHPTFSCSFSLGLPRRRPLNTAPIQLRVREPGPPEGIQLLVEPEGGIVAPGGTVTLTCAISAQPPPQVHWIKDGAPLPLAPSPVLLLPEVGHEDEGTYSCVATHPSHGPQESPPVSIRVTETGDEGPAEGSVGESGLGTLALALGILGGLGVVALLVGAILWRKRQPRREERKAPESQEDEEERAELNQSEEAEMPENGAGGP
UniProt Q15109, residues 23-404: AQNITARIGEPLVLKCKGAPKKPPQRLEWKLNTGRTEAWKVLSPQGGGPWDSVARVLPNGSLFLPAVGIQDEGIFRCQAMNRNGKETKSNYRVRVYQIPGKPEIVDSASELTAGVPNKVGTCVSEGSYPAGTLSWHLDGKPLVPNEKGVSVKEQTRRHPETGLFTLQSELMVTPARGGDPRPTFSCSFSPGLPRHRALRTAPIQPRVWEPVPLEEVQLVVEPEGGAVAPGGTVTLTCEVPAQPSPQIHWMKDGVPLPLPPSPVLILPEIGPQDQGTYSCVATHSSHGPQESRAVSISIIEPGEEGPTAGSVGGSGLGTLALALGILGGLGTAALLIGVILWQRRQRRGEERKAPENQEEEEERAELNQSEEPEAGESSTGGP
UniProt Q9BSQ5: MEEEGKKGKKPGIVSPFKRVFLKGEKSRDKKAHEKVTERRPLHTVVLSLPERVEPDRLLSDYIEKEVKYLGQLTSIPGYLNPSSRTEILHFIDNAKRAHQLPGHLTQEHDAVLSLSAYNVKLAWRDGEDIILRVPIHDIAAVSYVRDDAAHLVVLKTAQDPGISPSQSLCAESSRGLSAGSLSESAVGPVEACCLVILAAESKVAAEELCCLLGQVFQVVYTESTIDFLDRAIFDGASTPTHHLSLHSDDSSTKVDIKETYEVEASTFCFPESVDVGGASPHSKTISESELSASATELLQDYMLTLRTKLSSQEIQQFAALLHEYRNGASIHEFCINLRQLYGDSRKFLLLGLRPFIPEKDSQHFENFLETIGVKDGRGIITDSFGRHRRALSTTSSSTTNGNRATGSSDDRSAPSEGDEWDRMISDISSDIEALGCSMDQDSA
UniProt Q8K2Y9: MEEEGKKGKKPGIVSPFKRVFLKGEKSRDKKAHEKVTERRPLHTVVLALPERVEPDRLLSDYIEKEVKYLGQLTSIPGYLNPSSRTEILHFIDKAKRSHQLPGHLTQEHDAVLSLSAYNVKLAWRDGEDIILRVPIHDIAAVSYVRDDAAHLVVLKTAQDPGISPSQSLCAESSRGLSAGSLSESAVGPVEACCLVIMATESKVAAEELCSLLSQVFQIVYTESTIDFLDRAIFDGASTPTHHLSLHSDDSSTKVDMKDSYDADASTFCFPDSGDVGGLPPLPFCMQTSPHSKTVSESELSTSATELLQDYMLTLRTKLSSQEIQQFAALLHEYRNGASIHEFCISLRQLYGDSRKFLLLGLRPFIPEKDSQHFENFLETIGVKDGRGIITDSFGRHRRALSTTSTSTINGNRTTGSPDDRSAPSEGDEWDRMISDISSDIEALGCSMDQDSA

How the values were obtained:
[1] = target: T1, MEKK3, endogenous in HEK-293T cells (human (endogenous in HEK-293T)) (UniProt Q99759); assay: co-IP; endogenous proteins of HEK-293T cells; groups: normal glucose 25 mM, high glucose 80 mM for 24 h, high glucose with DMSO, mannitol control; immunoprecipitation buffer 50 mM HEPES pH 7.1, 150 mM NaCl, 1% Triton X-100, 0.5% NP-40; protein A/G-agarose, 4°C; immunoblot
T1 sequence: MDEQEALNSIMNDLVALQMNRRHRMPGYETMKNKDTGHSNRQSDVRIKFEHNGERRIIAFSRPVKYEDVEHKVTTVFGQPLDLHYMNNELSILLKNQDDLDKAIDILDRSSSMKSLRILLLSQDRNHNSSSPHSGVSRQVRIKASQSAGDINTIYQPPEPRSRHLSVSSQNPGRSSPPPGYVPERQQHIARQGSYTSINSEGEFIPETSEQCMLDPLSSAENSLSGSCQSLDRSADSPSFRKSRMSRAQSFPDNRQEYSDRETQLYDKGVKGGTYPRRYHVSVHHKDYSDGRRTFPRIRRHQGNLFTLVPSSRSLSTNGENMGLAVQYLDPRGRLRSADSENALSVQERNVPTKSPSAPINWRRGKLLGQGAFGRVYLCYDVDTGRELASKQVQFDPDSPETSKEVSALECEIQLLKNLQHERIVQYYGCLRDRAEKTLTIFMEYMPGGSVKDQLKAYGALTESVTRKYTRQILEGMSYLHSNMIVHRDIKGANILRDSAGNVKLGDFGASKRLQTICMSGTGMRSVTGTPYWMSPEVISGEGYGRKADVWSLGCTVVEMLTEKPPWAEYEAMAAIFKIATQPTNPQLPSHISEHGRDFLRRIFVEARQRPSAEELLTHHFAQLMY

[2] = target: T2, MEKK3, endogenous in mouse hippocampus (mouse (endogenous in hippocampus)) (UniProt Q61084); assay: co-IP; endogenous proteins of the hippocampus of C57BL/6 mice with high fat diet and STZ-induced diabetes and of control mice; groups Con, DM, FPS-ZM1 1.0 mg/kg, corn oil; immunoprecipitation and immunoblot
T2 sequence: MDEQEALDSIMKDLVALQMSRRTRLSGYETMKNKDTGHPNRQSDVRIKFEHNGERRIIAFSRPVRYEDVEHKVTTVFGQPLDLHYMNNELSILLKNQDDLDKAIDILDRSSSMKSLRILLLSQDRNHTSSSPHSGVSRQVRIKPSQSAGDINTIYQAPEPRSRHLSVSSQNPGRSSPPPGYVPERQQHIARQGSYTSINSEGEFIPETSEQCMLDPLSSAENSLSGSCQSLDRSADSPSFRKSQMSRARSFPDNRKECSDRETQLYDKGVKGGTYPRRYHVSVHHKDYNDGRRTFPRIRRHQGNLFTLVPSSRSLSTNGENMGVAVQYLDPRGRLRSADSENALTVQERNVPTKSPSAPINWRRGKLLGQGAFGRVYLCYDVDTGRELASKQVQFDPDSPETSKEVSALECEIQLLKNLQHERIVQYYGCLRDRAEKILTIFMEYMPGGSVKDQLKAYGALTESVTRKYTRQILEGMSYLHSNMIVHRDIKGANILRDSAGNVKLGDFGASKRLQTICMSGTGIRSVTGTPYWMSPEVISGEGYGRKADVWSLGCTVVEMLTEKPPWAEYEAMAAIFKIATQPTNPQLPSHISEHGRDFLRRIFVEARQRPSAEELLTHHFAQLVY

[3] = target: T2, MEKK3, endogenous in mouse hippocampus (mouse (endogenous in hippocampus)); assay: co-IP; endogenous proteins of the hippocampus of db/db and db/m mice; groups db/m, db/db, corn oil; immunoprecipitation and immunoblot
[4] = target: T2, MEKK3, endogenous in mouse hippocampus (mouse (endogenous in hippocampus)); assay: condition: only mice treated with FPS-ZM1 1.0 mg/kg; co-IP; endogenous proteins of the hippocampus of db/db mice treated with the RAGE antagonist FPS-ZM1 (1.0 mg/kg daily, 8 weeks); immunoprecipitation and immunoblot
[5] = target: Flag-RAGE wild type (LV-Flag-RAGE-wt, wild-type ctRAGE) (mouse) (UniProt Q62151); assay: co-IP; RAGE-knockdown HT22 cells transfected with LV-Flag-RAGE-wt or -mut, high glucose 50 mM for 24 h; immunoprecipitation, immunoblot with anti-Flag and anti-MKK3
[6] = target: receptor for advanced glycation end products (RAGE), endogenous in mouse hippocampus (mouse (endogenous in hippocampus)) (UniProt Q62151); assay: co-IP; endogenous proteins of the hippocampus of db/db and db/m mice; groups db/m, db/db, corn oil; immunoprecipitation and immunoblot
[7] = target: receptor for advanced glycation end products (RAGE), endogenous in mouse hippocampus (mouse (endogenous in hippocampus)) (UniProt Q62151); assay: co-IP; endogenous proteins of the hippocampus of C57BL/6 mice with high fat diet and STZ-induced diabetes and of control mice; groups Con, DM, FPS-ZM1 1.0 mg/kg, corn oil; immunoprecipitation and immunoblot
[8] = target: T2, MEKK3, endogenous in mouse hippocampus (mouse (endogenous in hippocampus)); assay: as above; remark: listed apart in the source
[9] = target: Flag-RAGE wild type (LV-Flag-RAGE-wt, wild-type ctRAGE) (mouse) (UniProt Q62151); assay: co-IP; hippocampus of db/db mice with RAGE knock-down (LV-RAGE-shRNA) injected with LV-Flag-RAGE-wt or -mut; immunoprecipitation, immunoblot with anti-Flag and anti-MKK3
[10] = target: receptor for advanced glycation end products (RAGE), endogenous in mouse hippocampus (mouse (endogenous in hippocampus)) (UniProt Q62151); assay: condition: only mice treated with FPS-ZM1 1.0 mg/kg; co-IP; endogenous proteins of the hippocampus of db/db mice treated with the RAGE antagonist FPS-ZM1 (1.0 mg/kg daily, 8 weeks); immunoprecipitation and immunoblot
[11] = target: receptor for advanced glycation end products (RAGE), endogenous in HEK-293T cells (human (endogenous in HEK-293T)) (UniProt Q15109); assay: co-IP; endogenous proteins of HEK-293T cells in high glucose (80 mM, 24 h) treated with the RAGE antagonist FPS-ZM1 (2.5 μM); same immunoprecipitation as a1
[12] = target: receptor for advanced glycation end products (RAGE), endogenous in HEK-293T cells (human (endogenous in HEK-293T)) (UniProt Q15109); assay: co-IP; endogenous proteins of HEK-293T cells; groups: normal glucose 25 mM, high glucose 80 mM for 24 h, high glucose with DMSO, mannitol control; immunoprecipitation buffer 50 mM HEPES pH 7.1, 150 mM NaCl, 1% Triton X-100, 0.5% NP-40; protein A/G-agarose, 4°C; immunoblot

osmosensing scaffold protein for MEKK3 (OSM), endogenous in HEK-293T cells (from UniProt Q9BSQ5 1-444)
binding [1]: binds

osmosensing scaffold protein for MEKK3 (OSM), endogenous in mouse hippocampus (from UniProt Q8K2Y9 1-453)
binding [2]: binds
binding [3]: binds
binding [4]: no binding

B1: mitogen-activated protein kinase kinase 3 (MKK3), endogenous in mouse hippocampus and HT22 cells (enzyme, UniProt O09110 1-347)
chain: MESPAASPPASLPQTKGKSKRKKDLRISCVSKPPVSNPTPPRNLDSRTFITIGDRNFEVEADDLVTISELGRGAYGVVEKVRHAQSGTIMAVKRIRATVNTQEQKRLLMDLDINMRTVDCFYTVTFYGALFREGDVWICMELMDTSLDKFYRKVLEKNMKIPEDILGEIAVSIVRALEHLHSKLSVIHRDVKPSNVLINKEGHVKMCDFGISGYLVDSVAKTMDAGCKPYMAPERINPELNQKGYNVKSDVWSLGITMIEMAILRFPYESWGTPFQQLKQVVEEPSPQLPADQFSPEFVDFTSQCLRKNPAERMSYLELMEHPFFTLHKTKKTDIAAFVKEILGEDS
binding [5]: binds
binding [6]: binds
binding [3]: binds
binding [7]: binds
binding [8]: binds
binding [9]: binds
binding [10]: no binding
binding [4]: no binding

B2: mitogen-activated protein kinase kinase 3 (MKK3), endogenous in HEK-293T cells (enzyme, UniProt P46734 1-347)
chain: MESPASSQPASMPQSKGKSKRKKDLRISCMSKPPAPNPTPPRNLDSRTFITIGDRNFEVEADDLVTISELGRGAYGVVEKVRHAQSGTIMAVKRIRATVNSQEQKRLLMDLDINMRTVDCFYTVTFYGALFREGDVWICMELMDTSLDKFYRKVLDKNMTIPEDILGEIAVSIVRALEHLHSKLSVIHRDVKPSNVLINKEGHVKMCDFGISGYLVDSVAKTMDAGCKPYMAPERINPELNQKGYNVKSDVWSLGITMIEMAILRFPYESWGTPFQQLKQVVEEPSPQLPADRFSPEFVDFTAQCLRKNPAERMSYLELMEHPFFTLHKTKKTDIAAFVKEILGEDS
binding [11]: no binding (condition: cells treated with 2.5 μM FPS-ZM1)
binding [1]: binds
binding [12]: binds
